Source: patent US11007191B2, “Pharmaceutical compositions and dosage forms” (IGNYTA, INC., priority 2017, dated 2021)
Some of these results come from one statement about several compounds together.

Assay: gastric-to-intestinal (GB/IB) two-stage dissolution test
Type: physicochemical
Settings: Example 5, IB stage, pH 6.5 media with 0.5% SIF

## CN1CCN(c2ccc(C(=O)Nc3n[nH]c4ccc(Cc5cc(F)cc(F)c5)cc34)c(NC3CCOCC3)c2)CC1 [API, N-[5-(3,5-difluorobenzyl)-1H-indazol-3-yl]-4-(4-methyl-piperazin-1-yl)-2-(tetrahydro-2H-pyran-4-ylamino)-benzamide]
  share of the 1 mg/mL dose maintained in the intestinal media: 80-90%
